Results are given in words; binding and its absence hold for the method and conditions named. Binding seen in cells or lysates may run through a third protein. Some binding calls cover weakened binding; strength is not graded here.

Amino acid sequences for entries named in this document (tags omitted). A change or cut given only in a name is not applied to a line headed by its entry. Chains listed by the source or under a name are the forms on record and can include a tag or linker. Residues count along the entry.
Flag-tagged full-length CREB, phosphorylated (S133) (P16220, form named): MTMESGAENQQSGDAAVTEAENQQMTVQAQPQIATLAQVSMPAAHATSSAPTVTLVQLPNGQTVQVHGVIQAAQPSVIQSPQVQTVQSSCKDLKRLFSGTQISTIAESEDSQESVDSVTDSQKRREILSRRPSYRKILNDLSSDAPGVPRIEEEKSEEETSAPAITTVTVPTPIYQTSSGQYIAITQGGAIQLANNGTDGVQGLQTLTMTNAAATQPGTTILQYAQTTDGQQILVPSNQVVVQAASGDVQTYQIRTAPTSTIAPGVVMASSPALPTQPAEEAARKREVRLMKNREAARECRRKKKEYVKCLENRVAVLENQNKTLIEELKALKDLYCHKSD
UniProt Q92793, residues 586-666: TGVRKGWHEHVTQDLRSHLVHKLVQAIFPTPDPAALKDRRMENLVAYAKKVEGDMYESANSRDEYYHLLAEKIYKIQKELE

The target in experiment [1] is Flag-tagged full-length CREB, phosphorylated (S133) (UniProt P16220). The experiment in a line: co-IP; as a3, but cells treated with NASTRp; immunoprecipitation with anti-Phospho-CREB (S133) antibody.
For experiment [2] the target is unchanged. As to the kind of experiment: co-IP; Flag-CREB1 stably expressing 293T cells transfected with HA-KIX; forskolin; immunoprecipitation with anti-Phospho-CREB (S133) antibody, western blot.

Take “HA-KIX (CBP; amino acids 586-666) (from UniProt Q92793 586-666) (domain or fragment)”: the binding entry in experiment [1] was “no binding (condition: cells treated with NASTRp)”; in experiment [2] it was “binds”.
